Measured values published in the supplement of paper PMC10849652.
The list shows a part of the results.

Chains of the proteins cited; added tags and fusions are not shown. Lines headed by an entry give the natural chain unless they say otherwise; changes in a name come on top.
UniProt P49674: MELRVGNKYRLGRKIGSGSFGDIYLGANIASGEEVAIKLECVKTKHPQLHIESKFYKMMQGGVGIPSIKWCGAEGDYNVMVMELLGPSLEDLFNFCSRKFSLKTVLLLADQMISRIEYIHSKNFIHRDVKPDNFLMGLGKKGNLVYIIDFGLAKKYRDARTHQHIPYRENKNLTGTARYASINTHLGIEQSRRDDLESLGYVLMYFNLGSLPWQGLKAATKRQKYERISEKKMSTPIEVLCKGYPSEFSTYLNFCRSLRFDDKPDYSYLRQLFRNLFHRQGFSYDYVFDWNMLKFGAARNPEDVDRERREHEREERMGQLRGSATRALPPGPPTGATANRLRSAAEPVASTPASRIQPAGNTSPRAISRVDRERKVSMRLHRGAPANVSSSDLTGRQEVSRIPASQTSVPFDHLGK
UniProt O43310: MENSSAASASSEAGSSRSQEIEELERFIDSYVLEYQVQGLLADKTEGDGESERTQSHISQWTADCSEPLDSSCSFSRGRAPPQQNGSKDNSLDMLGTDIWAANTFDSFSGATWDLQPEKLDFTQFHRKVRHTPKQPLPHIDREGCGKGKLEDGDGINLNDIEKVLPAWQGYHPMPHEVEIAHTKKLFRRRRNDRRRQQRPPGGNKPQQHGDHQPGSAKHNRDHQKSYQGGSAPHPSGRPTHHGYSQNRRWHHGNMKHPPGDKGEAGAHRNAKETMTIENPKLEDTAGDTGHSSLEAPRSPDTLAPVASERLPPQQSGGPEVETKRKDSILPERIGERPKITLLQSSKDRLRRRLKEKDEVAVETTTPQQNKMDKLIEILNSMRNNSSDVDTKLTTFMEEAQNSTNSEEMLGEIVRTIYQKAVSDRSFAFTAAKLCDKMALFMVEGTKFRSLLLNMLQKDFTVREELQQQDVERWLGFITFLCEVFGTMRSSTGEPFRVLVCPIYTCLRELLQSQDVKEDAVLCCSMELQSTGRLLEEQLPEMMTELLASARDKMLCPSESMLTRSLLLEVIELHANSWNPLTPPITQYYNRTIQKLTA
UniProt O43169: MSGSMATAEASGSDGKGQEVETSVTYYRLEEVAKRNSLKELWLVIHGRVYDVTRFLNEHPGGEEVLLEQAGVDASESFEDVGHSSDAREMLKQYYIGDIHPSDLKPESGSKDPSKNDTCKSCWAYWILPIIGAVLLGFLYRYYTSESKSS
UniProt O75629: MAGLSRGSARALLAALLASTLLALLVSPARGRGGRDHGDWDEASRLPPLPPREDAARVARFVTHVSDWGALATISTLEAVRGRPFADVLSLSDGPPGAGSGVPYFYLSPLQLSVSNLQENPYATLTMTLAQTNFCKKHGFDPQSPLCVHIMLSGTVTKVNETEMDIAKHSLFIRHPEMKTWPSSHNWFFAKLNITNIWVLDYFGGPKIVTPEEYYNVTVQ
UniProt P32929, whole entry, looked up: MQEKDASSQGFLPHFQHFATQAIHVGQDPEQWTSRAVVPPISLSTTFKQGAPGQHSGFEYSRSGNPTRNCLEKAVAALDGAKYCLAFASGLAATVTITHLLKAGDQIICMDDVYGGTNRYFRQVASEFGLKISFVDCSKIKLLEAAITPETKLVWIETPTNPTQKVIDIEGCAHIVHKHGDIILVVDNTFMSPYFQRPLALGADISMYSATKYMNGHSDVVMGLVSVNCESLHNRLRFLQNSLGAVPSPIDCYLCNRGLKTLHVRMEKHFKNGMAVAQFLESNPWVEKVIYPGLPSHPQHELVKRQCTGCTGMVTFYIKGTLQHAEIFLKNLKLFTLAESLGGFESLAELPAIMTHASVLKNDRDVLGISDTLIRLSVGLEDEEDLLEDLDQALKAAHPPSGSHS
UniProt O75718: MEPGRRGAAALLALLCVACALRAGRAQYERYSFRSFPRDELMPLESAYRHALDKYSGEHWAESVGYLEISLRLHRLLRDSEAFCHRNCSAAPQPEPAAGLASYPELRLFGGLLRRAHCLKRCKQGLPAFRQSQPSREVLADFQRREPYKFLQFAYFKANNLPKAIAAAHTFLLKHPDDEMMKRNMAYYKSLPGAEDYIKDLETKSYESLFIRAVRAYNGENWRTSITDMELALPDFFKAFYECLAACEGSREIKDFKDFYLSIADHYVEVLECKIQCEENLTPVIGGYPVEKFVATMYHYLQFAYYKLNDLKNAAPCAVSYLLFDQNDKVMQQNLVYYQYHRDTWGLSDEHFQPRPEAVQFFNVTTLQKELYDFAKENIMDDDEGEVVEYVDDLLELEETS
UniProt O95715: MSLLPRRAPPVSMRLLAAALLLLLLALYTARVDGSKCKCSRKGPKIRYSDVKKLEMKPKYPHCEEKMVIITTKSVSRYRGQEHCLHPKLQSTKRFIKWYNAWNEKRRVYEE
UniProt P78368: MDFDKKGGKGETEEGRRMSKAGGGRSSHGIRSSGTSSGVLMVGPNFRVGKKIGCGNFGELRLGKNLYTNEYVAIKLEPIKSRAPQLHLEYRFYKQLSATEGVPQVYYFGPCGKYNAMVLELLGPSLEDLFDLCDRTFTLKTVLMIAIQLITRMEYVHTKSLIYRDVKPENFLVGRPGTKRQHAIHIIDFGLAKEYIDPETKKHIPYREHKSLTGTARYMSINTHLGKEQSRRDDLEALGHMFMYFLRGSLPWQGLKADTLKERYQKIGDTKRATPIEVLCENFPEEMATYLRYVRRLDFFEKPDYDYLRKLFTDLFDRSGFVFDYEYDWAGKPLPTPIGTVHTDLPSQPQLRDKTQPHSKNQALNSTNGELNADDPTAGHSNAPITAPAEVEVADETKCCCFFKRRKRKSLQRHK
UniProt Q9HCG8: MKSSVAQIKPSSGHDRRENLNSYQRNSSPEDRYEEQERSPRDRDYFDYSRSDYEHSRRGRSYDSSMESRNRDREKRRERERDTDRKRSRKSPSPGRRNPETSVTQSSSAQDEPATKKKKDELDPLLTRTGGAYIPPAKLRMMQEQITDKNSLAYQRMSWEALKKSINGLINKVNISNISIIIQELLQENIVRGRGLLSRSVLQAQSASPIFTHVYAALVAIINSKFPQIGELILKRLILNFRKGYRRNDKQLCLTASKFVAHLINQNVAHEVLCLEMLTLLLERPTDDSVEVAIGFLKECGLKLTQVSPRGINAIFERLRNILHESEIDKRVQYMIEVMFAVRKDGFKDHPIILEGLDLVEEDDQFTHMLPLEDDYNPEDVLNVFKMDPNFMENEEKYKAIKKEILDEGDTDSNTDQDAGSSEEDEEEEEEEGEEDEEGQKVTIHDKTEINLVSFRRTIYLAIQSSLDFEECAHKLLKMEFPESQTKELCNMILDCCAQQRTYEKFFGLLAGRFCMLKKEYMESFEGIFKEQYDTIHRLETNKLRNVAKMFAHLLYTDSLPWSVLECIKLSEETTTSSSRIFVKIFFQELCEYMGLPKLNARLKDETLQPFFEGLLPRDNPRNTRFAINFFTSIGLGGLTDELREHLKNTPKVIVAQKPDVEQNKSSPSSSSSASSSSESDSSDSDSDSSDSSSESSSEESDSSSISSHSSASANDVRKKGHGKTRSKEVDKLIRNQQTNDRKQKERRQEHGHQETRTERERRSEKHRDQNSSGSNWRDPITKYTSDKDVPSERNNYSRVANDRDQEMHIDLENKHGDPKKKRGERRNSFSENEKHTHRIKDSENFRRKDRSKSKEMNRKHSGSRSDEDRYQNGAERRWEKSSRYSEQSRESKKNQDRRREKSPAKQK

Key:
Assay in all cases: log2 fold change, soluble protein after heating vs DMSO (PISA); higher = thermal stabilisation; K562 lysate, 10 uM; active = over 0.2 and 3.5 SD of the protein, either way, in both replicates (recomputed)
[1] = compound: C1=CC=C(C=C1)[C@H](COC2=CC3=C(C=C2)NC(=O)N3)NC(=O)C4=CC=CN(C4=O)CC5=CC(=C(C=C5)F)F
Outline: (§1)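 Log-two fold change in thermal stability relative to solvent controls is reported from duplicates. For each sample, crude K562 extract from dounce-homogenised pellets in PBS pH 7.4 with 1 mM MgCl2, at 1 mg/mL protein, was treated with 10 μM compound for 30 min. Aliquots heated for 3 min across 48°C-58°C were pooled, brought to 0.5% NP-40 at 4°C and cleared at 21,000xg for 90 min. The supernatant was quantified by TMTpro 16plex LC-MS/MS with channel sums equalised.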

[2] = compound: CC1=C(SC2=C1C(=N[C@H](C3=NN=C(N32)C)CC(=O)N)C4=CC=C(C=C4)Cl)C
Outline: as §1

[3] = compound: CC1=C2C(=CC=C1)N=C(N(C2=O)C3=CC=CC=C3C)CN4C=NC5=C(N=CN=C54)N
Outline: as §1

[4] = compound: Cc1sc2c(c1C)C(c1ccc(Cl)cc1)=N[C@@H](CC(=O)OC(C)(C)C)c1nnc(C)n1-2
Outline: as §1

[5] = compound: c1ccc([C@@H]2C[C@H]2NC2CCNCC2)cc1
Outline: as §1

Measured: log2 fold change

CSNK1E (UniProt P49674)
inactive: [1] -0.004 | [2] -0.072 | [3] -0.031 | [4] 0.031 | [5] -0.005

CTIF isoform 2 (UniProt O43310)
inactive: [1] 0.041 | [2] 0.023 | [3] 0.012 | [4] 0.081 | [5] -0.053

CYB5B (UniProt O43169)
inactive: [1] -0.109 | [2] -0.162 | [3] 0.019 | [4] -0.031 | [5] -0.054

CREG1 (UniProt O75629)
inactive: [1] -0.013 | [2] 0.032 | [3] -0.034 | [4] 0.02 | [5] 0.022

CTH (UniProt P32929)
inactive: [1] 0.037 | [2] 0.033 | [3] 0 | [4] -0.008 | [5] 0

CRTAP (UniProt O75718)
inactive: [1] 0.032 | [2] -0.045 | [3] -0.009 | [4] 0.045 | [5] 0.084

CXCL14 (UniProt O95715)
inactive: [1] 0.002 | [2] -0.088 | [3] 0.128

CSNK1G2 (UniProt P78368)
inactive: [1] 0.003 | [2] -0.051 | [3] -0.051 | [4] -0.1 | [5] -0.179

CWC22 (UniProt Q9HCG8)
inactive: [1] -0.033 | [2] 0.028 | [3] 0.034 | [4] 0.079 | [5] 0.237
